# Laboratory results as given in the supplement of paper PMC7125110.
# ± gives the standard error. The uncertainty is large for many entries.
# B1: glmS ribozyme (parent)
# chain: AUAAAAGCGCCAGAACUACAGAAAUGUAGUUGACGAGGAGGAGGUUUAUCGAAUUUUCGGCGGAUGCCUCCAAA
# Variants of: B1
# Assay: self-cleavage kobs at 160 uM GlcN6P; higher = faster cleavage; RNA array
# Settings: with glucosamine-6-phosphate
# How it was run: (§1)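 Glucosamine-6-phosphate (40 μM to 10 mM) in HEPES/KCl/Mg(OAc)2 buffer was flowed over sequenced MiSeq chips, and tiles were imaged over ~14 h. Barcoded ribozyme variants there had been transcribed in situ by E. coli RNA polymerase and were tracked through a hybridised Cy3 probe at 37 °C. One- or two-exponential decay fits to per-tile medians, normalised to baseline and to non-cleaving reference variants, gave kobs. kcat and KM came from weighted Michaelis–Menten fits across concentrations.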
row,Variant,self-cleavage kobs at 160 uM GlcN6P [s⁻¹]
1,A53C U57A U69A,2.65e-05 ± 2.3e-05
2,A53C U69A,1.8e-05 ± 1.6e-05
3,A53U G66C,3.5e-05 ± 2.6e-05
4,U55A C58A,1.68e-05 ± 1.1e-05
5,U55G U57A,1.74e-05 ± 1.6e-05
6,U56A C58U G59A C67G,4.15e-05 ± 3.5e-05
7,U57G C68A C70U,2.56e-05 ± 2e-05
8,C61G C67A,2.3e-05 ± 1.7e-05
9,U65G U69A,3.5e-05 ± 2e-05

# Variants of: B1
# Assay: self-cleavage kobs at 2500 uM GlcN6P; higher = faster cleavage; RNA array
# Settings: with glucosamine-6-phosphate
# How it was run: as §1
row,Variant,self-cleavage kobs at 2500 uM GlcN6P [s⁻¹]
1,C61G C67A,2.4e-05 ± 1.6e-05
2,A6C A14U A15U C50G U56C,3.63e-05 ± 2.7e-05
3,A6C U56G,1.93e-05 ± 1.7e-05
4,A6G C67G C68A,1.77e-05 ± 1.6e-05
5,A6G U30A C50G U55G,6.4e-05 ± 3.3e-05
6,A6G U45G,2.67e-05 ± 2.5e-05
7,G7U A12C C50G C61A,5.04e-05 ± 3.4e-05
8,G7U G63A,2.57e-05 ± 2.2e-05
9,C8A A15G G37A C70G,2.5e-05 ± 2.4e-05
10,C8A G62U,1.54e-05 ± 1.5e-05
11,C8G C11G A14C A39G C50G,3.16e-05 ± 2.3e-05
12,G9C A48G C67G C68A,8.29e-05 ± 4.4e-05
13,C10A A14G A53C C70G,3.99e-05 ± 2.8e-05
14,C10A G13C C61G G66A C70A,7.1e-05 ± 4.2e-05
15,C10G G38U U49G C58G A64C U65A C67U C68U,4.75e-05 ± 2.5e-05
16,C10U A12U C50A C68G,3.5e-05 ± 2e-05
17,C10U C11U A12G,3.29e-05 ± 2e-05
18,C10U G38U U57G C61G G66U,6.15e-05 ± 3.4e-05
19,C10U G63A C70U,2.92e-05 ± 2.6e-05
20,C11A G29A,1.97e-05 ± 1.3e-05
21,C11A U69G,6.07e-05 ± 4.5e-05
22,C11G C16A C50G U65G,4.75e-05 ± 3.1e-05
23,C11G G37C C50G A53U,3.19e-05 ± 2.9e-05

row,Variant,self-cleavage kobs at 2500 uM GlcN6P [s⁻¹]
1,C11U C50G U55G,3.84e-05 ± 2.1e-05
2,C11U U47G G66C,3.01e-05 ± 2e-05
3,A12C U57G,3.35e-05 ± 1.9e-05
4,A12G U30G A53U,1.42e-05 ± 1.4e-05
5,A12G U31G A39C U55A,2.11e-05 ± 1.5e-05
6,A12U A53U C71U,0.0578 ± 0.051
7,A12U C50U C71A,3.26e-05 ± 2.1e-05
8,A12U G32A U47C,3.78e-05 ± 2.1e-05
9,A12U U30A G44U C71U,2.43e-05 ± 2.3e-05
10,G13A G37A,< 1e-05
11,G13C C67A,1.62e-05 ± 1.2e-05
12,G13C G29A C61G C67U,2.54e-05 ± 1.9e-05
13,A14C C50G G62C,4.55e-05 ± 2.7e-05
14,A14C C61U C68G,3.25e-05 ± 2.5e-05
15,A14G C16U U46C,0.00449 ± 0.0025
16,A14G C61U C70U,2.12e-05 ± 1.4e-05
17,A14G G29U A39U,0.00455 ± 0.0025
18,A14G U31G G40C A52G,4.72e-05 ± 2.8e-05
19,A15C A53C C68U,3.24e-05 ± 1.7e-05
20,A15C G40A U49G C71U,3.15e-05 ± 2.2e-05
21,A15G A42C,2.01e-05 ± 1.6e-05
22,A15U G21U U47A C67A C68U,3.37e-05 ± 2.2e-05
23,C16A A33U,1.7e-05 ± 1.3e-05

# As entered above.
# In self-cleavage kobs at 2500 uM GlcN6P [s⁻¹], C11U U47G G66C has 3.01e-05 ± 2e-05
# In self-cleavage kobs at 2500 uM GlcN6P [s⁻¹], A12G U31G A39C U55A has 2.11e-05 ± 1.5e-05
# In self-cleavage kobs at 2500 uM GlcN6P [s⁻¹], A14C C50G G62C has 4.55e-05 ± 2.7e-05

# More entries.

row,Variant,self-cleavage kobs at 2500 uM GlcN6P [s⁻¹]
1,C16A A52U A53U U57A,2.41e-05 ± 2.4e-05
2,C16A C50G U55C G63C C70G,0.000225 ± 0.00013
3,C16A U46G C70G,2.27e-05 ± 1.7e-05
4,C16A U47C,4.36e-05 ± 3.6e-05
5,C16A U54A U69G,4.35e-05 ± 2.8e-05
6,C16G G29U A33C A39U,3.94e-05 ± 2.6e-05
7,C16U A33U C71G,3.58e-05 ± 2.3e-05
8,C16U C50G A53U U55A,3.45e-05 ± 2.2e-05
9,C16U C61A C70U,2.98e-05 ± 2.9e-05
10,G21C G44A C71U,3e-05 ± 1.9e-05
11,G29A U31C G41U,3.03e-05 ± 2.9e-05
12,G29A U49A A53G C68A,2.8e-05 ± 2.8e-05
13,G29C U30A A42G,4.82e-05 ± 3.1e-05
14,G29U A48C,1.8e-05 ± 1.3e-05
15,G29U G51A C68G,3.17e-05 ± 2.6e-05
16,U30A A52U U69G,2.99e-05 ± 2.3e-05
17,U30A C50A C67A C70G,3.5e-05 ± 2.2e-05
18,U30G A33C,2.21e-05 ± 1.4e-05
19,U30G C68A,2.44e-05 ± 1.8e-05
20,U31A G51A C68G,4.93e-05 ± 2.6e-05
21,U31C C61G,3.24e-05 ± 2.6e-05
22,U31C G37C C70A,3.57e-05 ± 2.9e-05
23,U31C G37U G59U G60C,0.00129 ± 0.00077

# Reformatted with tabs: part of the list above.
row	Variant	self-cleavage kobs at 2500 uM GlcN6P [s⁻¹]
2	C16A C50G U55C G63C C70G	0.000225 ± 0.00013
8	C16U C50G A53U U55A	3.45e-05 ± 2.2e-05
15	G29U G51A C68G	3.17e-05 ± 2.6e-05
18	U30G A33C	2.21e-05 ± 1.4e-05
22	U31C G37C C70A	3.57e-05 ± 2.9e-05
23	U31C G37U G59U G60C	0.00129 ± 0.00077

# The list goes on.

row,Variant,self-cleavage kobs at 2500 uM GlcN6P [s⁻¹]
1,U31C G51A A53U C70G,3.64e-05 ± 3.3e-05
2,U31C U45A U65A C71A,4.65e-05 ± 2.8e-05
3,G32A U69A C70G,2.32e-05 ± 2.1e-05
4,G32U U57A,1.88e-05 ± 1.2e-05
5,G32U U65A,3.33e-05 ± 1.8e-05
6,A33U G41A U54G,1.72e-05 ± 1.7e-05
7,A33U U46C,2.48e-05 ± 2.3e-05
8,G35U C67G C68G,4.04e-05 ± 2.1e-05
9,A36G G37A C61G C71G,3.77e-05 ± 1.9e-05
10,A36U G51A A52U C68A C70U,0.000115 ± 6.8e-05
11,A36U G66U C68G C70U,0.00027 ± 0.00015
12,G37A C58A,2.41e-05 ± 1.3e-05
13,A39C C71G,1.37e-05 ± 1.3e-05
14,A39G U56A G59A,2.77e-05 ± 2.2e-05
15,G40C U46C U56C,2.56e-05 ± 1.6e-05
16,G40U U46A G66U,3.92e-05 ± 2e-05
17,G41A U54G C58G C70U,1.88e-05 ± 1.7e-05
18,G43C U55G U56G C67G,4.49e-05 ± 2.6e-05
19,U45G U47C,0.000586 ± 0.00054
20,A48G C58A,3.26e-05 ± 2.1e-05
21,U49A A52G C68U,2.83e-05 ± 2e-05
22,U49A A52U U65A U69G,6.03e-05 ± 3.1e-05
23,U49C C50A C70A,2.65e-05 ± 2.6e-05

row,Variant,self-cleavage kobs at 2500 uM GlcN6P [s⁻¹]
1,C50A A53C G63U C68G,4.14e-05 ± 3e-05
2,C50G G59C G63A,0.00157 ± 0.00084
3,C50U U56G,1.48e-05 ± 1.3e-05
4,G51U C67A C71U,2.4e-05 ± 1.8e-05
5,A52C C68G,3.38e-05 ± 1.9e-05
6,A52G U57A G66U,2.98e-05 ± 1.6e-05
7,A53C G63A U65A C70A,8e-05 ± 4.2e-05
8,U54A A64G,0.0589 ± 0.04
9,U54C C61U,2.73e-05 ± 2.6e-05
10,U54C C67A,0.00348 ± 0.0018
11,U55A C58U,1.85e-05 ± 1.8e-05
12,U56G C58A U65G,3.13e-05 ± 1.7e-05
13,U57A C58A C71U,4.02e-05 ± 2.6e-05
14,U57A C61G C68U,2.14e-05 ± 2.1e-05
15,U57C C58A C70U,1.76e-05 ± 1.7e-05
16,U57G C68U C70A,2.54e-05 ± 2.1e-05
17,U57G U69A,3.54e-05 ± 1.9e-05
18,C58G C67U C70A,3.5e-05 ± 2.3e-05
19,G59A C70G,2.48e-05 ± 1.5e-05
20,C61A G66U C68G,3.57e-05 ± 1.9e-05
21,G62C C68A,1.73e-05 ± 1.7e-05
22,A64U G66C,2.1e-05 ± 1.5e-05
23,C68A U69G,2.92e-05 ± 1.8e-05

# Variants of: B1
# Assay: self-cleavage kobs at 10000 uM GlcN6P; higher = faster cleavage; RNA array
# Settings: with glucosamine-6-phosphate
# How it was run: as §1
row,Variant,self-cleavage kobs at 10000 uM GlcN6P [s⁻¹]
1,C10U C11U A12G,2.05e-05 ± 1.2e-05
2,A33U U46C,2.07e-05 ± 1.3e-05
3,G37A C58A,1.6e-05 ± 1.2e-05
4,A39C C71G,1.4e-05 ± 1.1e-05
5,C50U U56G,1.74e-05 ± 1.1e-05
6,U54C C61U,2.44e-05 ± 2.1e-05
7,U2C C11U G40A U45G,3.03e-05 ± 2.3e-05
8,A6C A14U,1.03e-05 ± 9.9e-06
9,A6G A15U G66A,2.2e-05 ± 1.8e-05
10,A6U C50U U56A G59A G62A C68G,2.31e-05 ± 2e-05
11,G7A G37C U69A,2.46e-05 ± 1.8e-05
12,G7U C68A,0.000352 ± 0.00028
13,C8U C11U G29U C58G C68U,0.00242 ± 0.0015
14,C10U G13C C16A G59C C68G C70U,2.04e-05 ± 1.6e-05
15,C11U A36G G37C C50G A64C,0.0057 ± 0.003
16,C11U G32C C58U C70G,3.14e-05 ± 1.8e-05
17,A12C U45G A64U,3.83e-05 ± 2e-05
18,A12U G37A C50G C67A,2.7e-05 ± 2e-05
19,A12U U45G U46A,0.00205 ± 0.0011
20,A14G G43C U56A,2.06e-05 ± 1.5e-05
21,A14G U45A G59U G66C,2.19e-05 ± 1.9e-05
22,A15G G29C U31G U56G C67G,3.24e-05 ± 2e-05

row,Variant,self-cleavage kobs at 10000 uM GlcN6P [s⁻¹]
1,A15G G43U A53C,1.58e-05 ± 1.3e-05
2,C16U A36G,1.83e-05 ± 1.6e-05
3,C16U U54G C58G C67G,2.95e-05 ± 1.7e-05
4,C16U U57A C70G,2.21e-05 ± 1.8e-05
5,G29C U31C C71A,2.7e-05 ± 2.3e-05
6,G29C U69A,2.07e-05 ± 1.9e-05
7,U30C A33U,1.58e-05 ± 1.3e-05
8,U30G U69G,1.41e-05 ± 9e-06
9,U31G U54G C67G C68A C70G,3.48e-05 ± 2e-05
10,G32C U45G,2.11e-05 ± 1.6e-05
11,A36G U45A,2.49e-05 ± 1.6e-05
12,A36G U55G,1.64e-05 ± 1.4e-05
13,A39G G43C U45A,2.5e-05 ± 1.9e-05
14,A39U G60A,1.76e-05 ± 1.3e-05
15,G43U A53U A64G,2.7e-05 ± 1.4e-05
16,G43U U47A,2.04e-05 ± 1.2e-05
17,U45G A48G C71U,2.55e-05 ± 2.4e-05
18,U47A U54C C58U,2.65e-05 ± 1.6e-05
19,U54G C68A,2.08e-05 ± 1.3e-05
20,U55G U57G U69C C71A,2.2e-05 ± 1.8e-05
21,C61U C67A C70U,3.03e-05 ± 1.6e-05
22,U65A U69G,2.68e-05 ± 2.1e-05
